In paper PMC12396675:
Results are given in words; binding and its absence hold for the method and conditions named. Binding seen in cells or lysates may run through a third protein. Some results given as binding are weak or reduced against the parent protein; the word gives no strength.

T1: receptor-interacting protein kinase 1 (mouse (endogenous in left ventricle)) (UniProt Q60855)
T1 sequence: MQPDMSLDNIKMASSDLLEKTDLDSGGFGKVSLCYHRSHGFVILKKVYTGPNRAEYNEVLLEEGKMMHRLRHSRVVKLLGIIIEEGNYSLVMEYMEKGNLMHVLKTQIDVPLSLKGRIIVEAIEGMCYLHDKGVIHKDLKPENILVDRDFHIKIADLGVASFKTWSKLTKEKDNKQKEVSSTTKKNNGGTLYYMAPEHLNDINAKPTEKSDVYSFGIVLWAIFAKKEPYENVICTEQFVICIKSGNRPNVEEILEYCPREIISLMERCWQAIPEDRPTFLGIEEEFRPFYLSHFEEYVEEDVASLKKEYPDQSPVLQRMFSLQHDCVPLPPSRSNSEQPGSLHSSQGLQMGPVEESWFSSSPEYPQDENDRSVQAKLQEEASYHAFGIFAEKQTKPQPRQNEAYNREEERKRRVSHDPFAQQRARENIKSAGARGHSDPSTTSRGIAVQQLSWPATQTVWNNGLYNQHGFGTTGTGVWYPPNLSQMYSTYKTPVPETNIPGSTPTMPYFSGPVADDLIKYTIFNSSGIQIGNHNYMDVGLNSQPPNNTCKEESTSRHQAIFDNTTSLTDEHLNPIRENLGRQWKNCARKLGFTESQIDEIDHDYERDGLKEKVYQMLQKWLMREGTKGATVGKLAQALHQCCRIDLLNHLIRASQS

T2: receptor-interacting protein kinase 1 (mouse (endogenous in left ventricle)), Q60855
T2 chain: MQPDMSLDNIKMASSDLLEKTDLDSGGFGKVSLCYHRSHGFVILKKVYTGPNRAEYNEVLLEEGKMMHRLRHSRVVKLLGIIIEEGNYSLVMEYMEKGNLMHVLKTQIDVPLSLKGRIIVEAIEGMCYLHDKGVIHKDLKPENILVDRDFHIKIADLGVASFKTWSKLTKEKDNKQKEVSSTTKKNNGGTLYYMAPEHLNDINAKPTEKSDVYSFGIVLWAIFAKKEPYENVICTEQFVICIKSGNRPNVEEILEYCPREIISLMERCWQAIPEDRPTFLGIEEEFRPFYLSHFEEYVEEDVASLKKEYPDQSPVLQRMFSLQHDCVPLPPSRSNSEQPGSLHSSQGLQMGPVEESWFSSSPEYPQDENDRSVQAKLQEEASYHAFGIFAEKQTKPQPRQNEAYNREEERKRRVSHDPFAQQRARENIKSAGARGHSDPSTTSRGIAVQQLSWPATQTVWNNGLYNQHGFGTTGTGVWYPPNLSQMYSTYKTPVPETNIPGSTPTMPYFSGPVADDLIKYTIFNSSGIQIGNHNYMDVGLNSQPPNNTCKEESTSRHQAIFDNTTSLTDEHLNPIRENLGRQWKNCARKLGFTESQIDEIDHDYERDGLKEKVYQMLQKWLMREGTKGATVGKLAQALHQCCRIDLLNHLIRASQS


How the values were obtained:
[1] = target: T1, receptor-interacting protein kinase 1 (mouse (endogenous in left ventricle)); assay: co-IP; mouse myocardial (left-ventricular) tissue lysed in RIPA buffer with protease and phosphatase inhibitors; 1 μg primary antibody (TGFBR1, TAK1 or RIPK1) or IgG, 4°C; protein A/G beads overnight; western blot; groups of mice: control, shTGFBR1 + control, HFpEF (HFD + L-NAME), shTGFBR1 + HFpEF; which antibody precipitated in which panel is not told
[2] = target: T2, receptor-interacting protein kinase 1 …; assay: as above; conditions: remark: other sources report otherwise

| binding [1] | binding [2] | Binder |
| --- | --- | --- |
| binds | – | caspase-8 (enzyme, UniProt O89110 1-480) MDFQSCLYAIAEELGSEDLAALKFLCLDYIPHKKQETIEDAQKLFLRLREKGMLEEGNLSFLKELLFHISRWDLLVNFLDCNREEMVRELRDPDNAQISPYRVMLFKLSEEVSELELRSFKFLLNNEIPKCKLEDDLSLLEIFVEMEKRTMLAENNLETLKSICDQVNKSLLGKIEDYERSSTERRMSLEGREELPPSVLDEMSLKMAELCDSPREQDSESRTSDKVYQMKNKPRGYCLIINNHDFSKAREDITQLRKMKDRKGTDCDKEALSKTFKELHFEIVSYDDCTANEIHEILEGYQSADHKNKDCFICCILSHGDKGVVYGTDGKEASIYDLTSYFTGSKCPSLSGKPKIFFIQACQGSNFQKGVPDEAGFEQQNHTLEVDSSSHKNYIPDEADFLLGMATVKNCVSYRDPVNGTWYIQSLCQSLRERCPQGDDILSILTGVNYDVSNKDDRRNKGKQMPQPTFTLRKKLFFPP |
| – | binds | RIPK3, Q9QZL0 1-486 (enzyme) MSSVKLWPTGASAVPLVSREELKKLEFVGKGGFGVVFRAHHRTWNHDVAVKIVNSKKISWEVKAMVNLRNENVLLLLGVTEDLQWDFVSGQALVTRFMENGSLAGLLQPECPRPWPLLCRLLQEVVLGMCYLHSLNPPLLHRDLKPSNILLDPELHAKLADFGLSTFQGGSQSGSGSGSGSRDSGGTLAYLDPELLFDVNLKASKASDVYSFGILVWAVLAGREAELVDKTSLIRETVCDRQSRPPLTELPPGSPETPGLEKLKELMIHCWGSQSENRPSFQDCEPKTNEVYNLVKDKVDAAVSEVKHYLSQHRSSGRNLSAREPSQRGTEMDCPRETMVSKMLDRLHLEEPSGPVPGKCPERQAQDTSVGPATPARTSSDPVAGTPQIPHTLPFRGTTPGPVFTETPGPHPQRNQGDGRHGTPWYPWTPPNPMTGPPALVFNNCSEVQIGNYNSLVAPPRTTASSSAKYDQAQFGRGRGWQPFHK |
| binds | – | caspase-1 (enzyme, UniProt P29452 1-402) MADKILRAKRKQFINSVSIGTINGLLDELLEKRVLNQEEMDKIKLANITAMDKARDLCDHVSKKGPQASQIFITYICNEDCYLAGILELQSAPSAETFVATEDSKGGHPSSSETKEEQNKEDGTFPGLTGTLKFCPLEKAQKLWKENPSEIYPIMNTTTRTRLALIICNTEFQHLSPRVGAQVDLREMKLLLEDLGYTVKVKENLTALEMVKEVKEFAACPEHKTSDSTFLVFMSHGIQEGICGTTYSNEVSDILKVDTIFQMMNTLKCPSLKDKPKVIIIQACRGEKQGVVLLKDSVRDSEEDFLTDAIFEDDGIKKAHIEKDFIAFCSSTPDNVSWRHPVRGSLFIESLIKHMKEYAWSCDLEDIFRKVRFSFEQPEFRLQMPTADRVTLTKRFYLFPGH |
